# Laboratory results as given in article PMC8614874.
# The chains behind the UniProt entries cited, without tags or fusion partners. Where a name states a change or a piece, a line headed by the entry shows the natural chain unless it says otherwise. A line that says so, or that is headed by a name, gives the form on record, which may keep a tag or linker.
# UniProt P02452: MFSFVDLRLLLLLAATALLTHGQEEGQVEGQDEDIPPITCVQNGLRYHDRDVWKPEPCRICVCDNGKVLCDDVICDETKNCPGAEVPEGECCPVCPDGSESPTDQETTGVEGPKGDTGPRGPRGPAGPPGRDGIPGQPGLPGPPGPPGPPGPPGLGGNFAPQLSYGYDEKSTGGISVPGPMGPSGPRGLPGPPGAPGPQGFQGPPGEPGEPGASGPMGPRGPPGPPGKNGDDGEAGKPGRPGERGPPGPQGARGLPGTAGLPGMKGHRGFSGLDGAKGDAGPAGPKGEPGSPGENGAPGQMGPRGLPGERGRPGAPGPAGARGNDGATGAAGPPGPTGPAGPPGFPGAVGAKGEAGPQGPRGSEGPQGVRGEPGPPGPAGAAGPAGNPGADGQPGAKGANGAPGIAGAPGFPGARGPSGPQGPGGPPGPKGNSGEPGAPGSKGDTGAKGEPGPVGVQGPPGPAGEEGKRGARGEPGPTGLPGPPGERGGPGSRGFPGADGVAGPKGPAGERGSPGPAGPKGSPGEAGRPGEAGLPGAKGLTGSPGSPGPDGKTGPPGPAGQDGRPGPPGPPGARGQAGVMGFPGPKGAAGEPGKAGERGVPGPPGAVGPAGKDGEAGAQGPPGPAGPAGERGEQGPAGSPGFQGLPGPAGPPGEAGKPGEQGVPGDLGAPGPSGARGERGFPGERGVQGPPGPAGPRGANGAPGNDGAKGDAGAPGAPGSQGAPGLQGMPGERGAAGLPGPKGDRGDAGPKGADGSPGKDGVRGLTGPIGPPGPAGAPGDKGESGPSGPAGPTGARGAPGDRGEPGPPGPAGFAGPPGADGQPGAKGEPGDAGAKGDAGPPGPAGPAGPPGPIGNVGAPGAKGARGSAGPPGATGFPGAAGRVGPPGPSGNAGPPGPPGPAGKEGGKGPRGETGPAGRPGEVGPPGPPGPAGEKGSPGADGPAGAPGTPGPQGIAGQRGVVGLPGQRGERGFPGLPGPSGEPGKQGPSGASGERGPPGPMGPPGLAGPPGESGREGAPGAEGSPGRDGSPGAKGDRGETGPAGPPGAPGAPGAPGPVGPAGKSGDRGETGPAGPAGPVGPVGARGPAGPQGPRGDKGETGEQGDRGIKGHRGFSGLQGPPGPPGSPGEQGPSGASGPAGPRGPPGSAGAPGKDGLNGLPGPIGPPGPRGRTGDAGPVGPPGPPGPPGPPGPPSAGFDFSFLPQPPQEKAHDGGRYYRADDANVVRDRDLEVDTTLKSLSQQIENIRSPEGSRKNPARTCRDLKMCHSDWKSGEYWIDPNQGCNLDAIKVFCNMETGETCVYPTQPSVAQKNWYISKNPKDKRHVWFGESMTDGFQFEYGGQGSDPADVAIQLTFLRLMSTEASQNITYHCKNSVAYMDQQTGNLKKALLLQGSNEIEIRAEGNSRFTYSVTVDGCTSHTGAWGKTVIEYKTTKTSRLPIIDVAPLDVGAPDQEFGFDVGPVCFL
# UniProt P08123: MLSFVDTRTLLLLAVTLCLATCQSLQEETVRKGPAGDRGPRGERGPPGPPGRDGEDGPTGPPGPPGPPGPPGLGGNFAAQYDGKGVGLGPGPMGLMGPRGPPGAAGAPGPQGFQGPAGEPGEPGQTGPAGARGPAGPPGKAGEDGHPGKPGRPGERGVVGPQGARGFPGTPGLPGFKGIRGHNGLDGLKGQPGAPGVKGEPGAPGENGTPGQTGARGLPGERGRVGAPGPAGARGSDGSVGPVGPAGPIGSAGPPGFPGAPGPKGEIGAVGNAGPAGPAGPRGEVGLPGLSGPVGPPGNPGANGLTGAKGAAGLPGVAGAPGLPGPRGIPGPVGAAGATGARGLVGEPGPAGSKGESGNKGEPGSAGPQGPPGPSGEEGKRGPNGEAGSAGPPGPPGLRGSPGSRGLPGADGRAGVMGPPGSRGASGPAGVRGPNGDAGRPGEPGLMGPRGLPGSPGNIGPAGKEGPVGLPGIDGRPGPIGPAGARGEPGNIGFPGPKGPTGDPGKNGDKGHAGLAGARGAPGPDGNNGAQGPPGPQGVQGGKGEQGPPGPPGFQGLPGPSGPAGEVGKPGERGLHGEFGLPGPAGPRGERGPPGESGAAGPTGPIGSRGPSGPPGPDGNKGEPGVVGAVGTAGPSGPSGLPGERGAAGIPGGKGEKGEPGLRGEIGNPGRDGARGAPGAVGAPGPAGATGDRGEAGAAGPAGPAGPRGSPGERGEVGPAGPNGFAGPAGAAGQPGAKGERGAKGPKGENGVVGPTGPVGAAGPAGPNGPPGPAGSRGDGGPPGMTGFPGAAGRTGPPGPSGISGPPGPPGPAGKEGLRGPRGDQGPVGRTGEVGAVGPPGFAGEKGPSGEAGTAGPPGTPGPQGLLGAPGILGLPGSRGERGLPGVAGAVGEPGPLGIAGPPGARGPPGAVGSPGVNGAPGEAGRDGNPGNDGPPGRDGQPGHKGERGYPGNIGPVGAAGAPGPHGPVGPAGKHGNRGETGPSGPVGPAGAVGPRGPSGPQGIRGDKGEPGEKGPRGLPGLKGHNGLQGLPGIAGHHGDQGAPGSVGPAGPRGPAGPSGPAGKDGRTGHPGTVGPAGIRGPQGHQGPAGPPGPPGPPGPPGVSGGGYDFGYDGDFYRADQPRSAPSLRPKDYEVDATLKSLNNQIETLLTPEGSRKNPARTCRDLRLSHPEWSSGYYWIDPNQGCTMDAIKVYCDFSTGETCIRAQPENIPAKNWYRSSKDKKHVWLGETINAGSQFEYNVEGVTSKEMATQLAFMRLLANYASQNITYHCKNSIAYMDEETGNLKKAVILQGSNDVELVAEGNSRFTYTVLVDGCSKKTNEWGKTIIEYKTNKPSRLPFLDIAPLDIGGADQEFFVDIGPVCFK
# UniProt P61769: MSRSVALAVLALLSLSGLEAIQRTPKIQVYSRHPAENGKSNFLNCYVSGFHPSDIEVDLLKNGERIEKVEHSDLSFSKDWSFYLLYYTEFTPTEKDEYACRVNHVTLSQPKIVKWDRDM
# D38N β2-microglobulin mutant (P61769, form named): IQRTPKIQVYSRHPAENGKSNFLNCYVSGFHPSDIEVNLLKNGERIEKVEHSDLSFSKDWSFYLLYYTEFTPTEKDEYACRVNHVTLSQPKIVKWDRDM
# D76N β2-microglobulin variant (P61769, form named): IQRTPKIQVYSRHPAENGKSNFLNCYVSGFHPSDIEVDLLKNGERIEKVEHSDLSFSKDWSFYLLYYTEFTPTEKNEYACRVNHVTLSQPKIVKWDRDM
# K41S β2-microglobulin mutant (P61769, form named): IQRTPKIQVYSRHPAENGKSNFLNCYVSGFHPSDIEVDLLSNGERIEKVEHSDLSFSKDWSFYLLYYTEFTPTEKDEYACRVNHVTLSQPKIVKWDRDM
# These are yes or no findings as the source states them, for the method shown. Some binding calls cover weakened binding; strength is not graded here.
# Key:
# Assay in all cases: ELISA; ECM protein coated on microtiter wells (10 µg/mL in DPBS, 1 h), blocked with 5% BSA in DPBS with 0.05% Tween 20; β2m variants added in dilution series (0, 2.5, 5, 10 µg/mL), 1 h; detected with mouse anti-human β2m and goat anti-mouse-HRP, absorbance at 450 nm; both purified
# [1] = molecular target: collagen I from human placenta (human) (UniProt P02452+P08123)
# fibromodulin = molecular target: T1, fibromodulin (UniProt Q06828)
# T1 sequence: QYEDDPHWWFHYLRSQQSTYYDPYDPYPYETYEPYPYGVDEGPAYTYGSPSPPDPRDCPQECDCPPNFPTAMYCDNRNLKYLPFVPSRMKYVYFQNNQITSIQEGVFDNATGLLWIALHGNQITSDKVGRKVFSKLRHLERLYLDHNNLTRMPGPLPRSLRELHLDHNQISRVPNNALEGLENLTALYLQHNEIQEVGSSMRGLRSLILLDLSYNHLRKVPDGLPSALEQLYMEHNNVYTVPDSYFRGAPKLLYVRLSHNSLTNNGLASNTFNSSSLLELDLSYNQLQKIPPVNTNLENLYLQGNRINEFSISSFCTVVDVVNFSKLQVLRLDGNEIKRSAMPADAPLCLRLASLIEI
# osteoadherin = molecular target: T2, osteoadherin (UniProt Q99983)
# T2 sequence: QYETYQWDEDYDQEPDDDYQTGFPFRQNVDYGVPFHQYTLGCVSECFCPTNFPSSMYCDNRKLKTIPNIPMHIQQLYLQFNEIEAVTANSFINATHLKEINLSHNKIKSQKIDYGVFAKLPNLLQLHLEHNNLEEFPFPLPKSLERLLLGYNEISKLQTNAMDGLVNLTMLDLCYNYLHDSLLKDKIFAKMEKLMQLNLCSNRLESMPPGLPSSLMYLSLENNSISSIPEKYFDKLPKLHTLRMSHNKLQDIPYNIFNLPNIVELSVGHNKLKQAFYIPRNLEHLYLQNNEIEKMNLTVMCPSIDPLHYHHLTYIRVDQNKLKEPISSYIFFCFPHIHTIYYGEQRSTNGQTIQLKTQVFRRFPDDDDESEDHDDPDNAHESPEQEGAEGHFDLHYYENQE
binding [1],binding (fibromodulin),binding (osteoadherin),Substance
binds,binds,binds,D38N β2-microglobulin mutant (from UniProt P61769 21-119)
binds,binds,binds,D76N β2-microglobulin variant (from UniProt P61769 21-119)
binds,binds,binds,K41S β2-microglobulin mutant (from UniProt P61769 21-119)
binds weakly,binds,binds,wild-type β2-microglobulin (from UniProt P61769 21-119)
